Laboratory results: patent publication US5747451A, “Peptide derivatives having binding activity to modified low density lipoprotein” (Protein Engineering Research Institute, priority 1994, dated 1998)
Part of at least one peptide drawing is inferred or uncertain, most often the ends.

Protein sequences, listed by entry. Tags and fused reporters are not part of them. Residues count along the entry.
UniProt P04114, 28-4563: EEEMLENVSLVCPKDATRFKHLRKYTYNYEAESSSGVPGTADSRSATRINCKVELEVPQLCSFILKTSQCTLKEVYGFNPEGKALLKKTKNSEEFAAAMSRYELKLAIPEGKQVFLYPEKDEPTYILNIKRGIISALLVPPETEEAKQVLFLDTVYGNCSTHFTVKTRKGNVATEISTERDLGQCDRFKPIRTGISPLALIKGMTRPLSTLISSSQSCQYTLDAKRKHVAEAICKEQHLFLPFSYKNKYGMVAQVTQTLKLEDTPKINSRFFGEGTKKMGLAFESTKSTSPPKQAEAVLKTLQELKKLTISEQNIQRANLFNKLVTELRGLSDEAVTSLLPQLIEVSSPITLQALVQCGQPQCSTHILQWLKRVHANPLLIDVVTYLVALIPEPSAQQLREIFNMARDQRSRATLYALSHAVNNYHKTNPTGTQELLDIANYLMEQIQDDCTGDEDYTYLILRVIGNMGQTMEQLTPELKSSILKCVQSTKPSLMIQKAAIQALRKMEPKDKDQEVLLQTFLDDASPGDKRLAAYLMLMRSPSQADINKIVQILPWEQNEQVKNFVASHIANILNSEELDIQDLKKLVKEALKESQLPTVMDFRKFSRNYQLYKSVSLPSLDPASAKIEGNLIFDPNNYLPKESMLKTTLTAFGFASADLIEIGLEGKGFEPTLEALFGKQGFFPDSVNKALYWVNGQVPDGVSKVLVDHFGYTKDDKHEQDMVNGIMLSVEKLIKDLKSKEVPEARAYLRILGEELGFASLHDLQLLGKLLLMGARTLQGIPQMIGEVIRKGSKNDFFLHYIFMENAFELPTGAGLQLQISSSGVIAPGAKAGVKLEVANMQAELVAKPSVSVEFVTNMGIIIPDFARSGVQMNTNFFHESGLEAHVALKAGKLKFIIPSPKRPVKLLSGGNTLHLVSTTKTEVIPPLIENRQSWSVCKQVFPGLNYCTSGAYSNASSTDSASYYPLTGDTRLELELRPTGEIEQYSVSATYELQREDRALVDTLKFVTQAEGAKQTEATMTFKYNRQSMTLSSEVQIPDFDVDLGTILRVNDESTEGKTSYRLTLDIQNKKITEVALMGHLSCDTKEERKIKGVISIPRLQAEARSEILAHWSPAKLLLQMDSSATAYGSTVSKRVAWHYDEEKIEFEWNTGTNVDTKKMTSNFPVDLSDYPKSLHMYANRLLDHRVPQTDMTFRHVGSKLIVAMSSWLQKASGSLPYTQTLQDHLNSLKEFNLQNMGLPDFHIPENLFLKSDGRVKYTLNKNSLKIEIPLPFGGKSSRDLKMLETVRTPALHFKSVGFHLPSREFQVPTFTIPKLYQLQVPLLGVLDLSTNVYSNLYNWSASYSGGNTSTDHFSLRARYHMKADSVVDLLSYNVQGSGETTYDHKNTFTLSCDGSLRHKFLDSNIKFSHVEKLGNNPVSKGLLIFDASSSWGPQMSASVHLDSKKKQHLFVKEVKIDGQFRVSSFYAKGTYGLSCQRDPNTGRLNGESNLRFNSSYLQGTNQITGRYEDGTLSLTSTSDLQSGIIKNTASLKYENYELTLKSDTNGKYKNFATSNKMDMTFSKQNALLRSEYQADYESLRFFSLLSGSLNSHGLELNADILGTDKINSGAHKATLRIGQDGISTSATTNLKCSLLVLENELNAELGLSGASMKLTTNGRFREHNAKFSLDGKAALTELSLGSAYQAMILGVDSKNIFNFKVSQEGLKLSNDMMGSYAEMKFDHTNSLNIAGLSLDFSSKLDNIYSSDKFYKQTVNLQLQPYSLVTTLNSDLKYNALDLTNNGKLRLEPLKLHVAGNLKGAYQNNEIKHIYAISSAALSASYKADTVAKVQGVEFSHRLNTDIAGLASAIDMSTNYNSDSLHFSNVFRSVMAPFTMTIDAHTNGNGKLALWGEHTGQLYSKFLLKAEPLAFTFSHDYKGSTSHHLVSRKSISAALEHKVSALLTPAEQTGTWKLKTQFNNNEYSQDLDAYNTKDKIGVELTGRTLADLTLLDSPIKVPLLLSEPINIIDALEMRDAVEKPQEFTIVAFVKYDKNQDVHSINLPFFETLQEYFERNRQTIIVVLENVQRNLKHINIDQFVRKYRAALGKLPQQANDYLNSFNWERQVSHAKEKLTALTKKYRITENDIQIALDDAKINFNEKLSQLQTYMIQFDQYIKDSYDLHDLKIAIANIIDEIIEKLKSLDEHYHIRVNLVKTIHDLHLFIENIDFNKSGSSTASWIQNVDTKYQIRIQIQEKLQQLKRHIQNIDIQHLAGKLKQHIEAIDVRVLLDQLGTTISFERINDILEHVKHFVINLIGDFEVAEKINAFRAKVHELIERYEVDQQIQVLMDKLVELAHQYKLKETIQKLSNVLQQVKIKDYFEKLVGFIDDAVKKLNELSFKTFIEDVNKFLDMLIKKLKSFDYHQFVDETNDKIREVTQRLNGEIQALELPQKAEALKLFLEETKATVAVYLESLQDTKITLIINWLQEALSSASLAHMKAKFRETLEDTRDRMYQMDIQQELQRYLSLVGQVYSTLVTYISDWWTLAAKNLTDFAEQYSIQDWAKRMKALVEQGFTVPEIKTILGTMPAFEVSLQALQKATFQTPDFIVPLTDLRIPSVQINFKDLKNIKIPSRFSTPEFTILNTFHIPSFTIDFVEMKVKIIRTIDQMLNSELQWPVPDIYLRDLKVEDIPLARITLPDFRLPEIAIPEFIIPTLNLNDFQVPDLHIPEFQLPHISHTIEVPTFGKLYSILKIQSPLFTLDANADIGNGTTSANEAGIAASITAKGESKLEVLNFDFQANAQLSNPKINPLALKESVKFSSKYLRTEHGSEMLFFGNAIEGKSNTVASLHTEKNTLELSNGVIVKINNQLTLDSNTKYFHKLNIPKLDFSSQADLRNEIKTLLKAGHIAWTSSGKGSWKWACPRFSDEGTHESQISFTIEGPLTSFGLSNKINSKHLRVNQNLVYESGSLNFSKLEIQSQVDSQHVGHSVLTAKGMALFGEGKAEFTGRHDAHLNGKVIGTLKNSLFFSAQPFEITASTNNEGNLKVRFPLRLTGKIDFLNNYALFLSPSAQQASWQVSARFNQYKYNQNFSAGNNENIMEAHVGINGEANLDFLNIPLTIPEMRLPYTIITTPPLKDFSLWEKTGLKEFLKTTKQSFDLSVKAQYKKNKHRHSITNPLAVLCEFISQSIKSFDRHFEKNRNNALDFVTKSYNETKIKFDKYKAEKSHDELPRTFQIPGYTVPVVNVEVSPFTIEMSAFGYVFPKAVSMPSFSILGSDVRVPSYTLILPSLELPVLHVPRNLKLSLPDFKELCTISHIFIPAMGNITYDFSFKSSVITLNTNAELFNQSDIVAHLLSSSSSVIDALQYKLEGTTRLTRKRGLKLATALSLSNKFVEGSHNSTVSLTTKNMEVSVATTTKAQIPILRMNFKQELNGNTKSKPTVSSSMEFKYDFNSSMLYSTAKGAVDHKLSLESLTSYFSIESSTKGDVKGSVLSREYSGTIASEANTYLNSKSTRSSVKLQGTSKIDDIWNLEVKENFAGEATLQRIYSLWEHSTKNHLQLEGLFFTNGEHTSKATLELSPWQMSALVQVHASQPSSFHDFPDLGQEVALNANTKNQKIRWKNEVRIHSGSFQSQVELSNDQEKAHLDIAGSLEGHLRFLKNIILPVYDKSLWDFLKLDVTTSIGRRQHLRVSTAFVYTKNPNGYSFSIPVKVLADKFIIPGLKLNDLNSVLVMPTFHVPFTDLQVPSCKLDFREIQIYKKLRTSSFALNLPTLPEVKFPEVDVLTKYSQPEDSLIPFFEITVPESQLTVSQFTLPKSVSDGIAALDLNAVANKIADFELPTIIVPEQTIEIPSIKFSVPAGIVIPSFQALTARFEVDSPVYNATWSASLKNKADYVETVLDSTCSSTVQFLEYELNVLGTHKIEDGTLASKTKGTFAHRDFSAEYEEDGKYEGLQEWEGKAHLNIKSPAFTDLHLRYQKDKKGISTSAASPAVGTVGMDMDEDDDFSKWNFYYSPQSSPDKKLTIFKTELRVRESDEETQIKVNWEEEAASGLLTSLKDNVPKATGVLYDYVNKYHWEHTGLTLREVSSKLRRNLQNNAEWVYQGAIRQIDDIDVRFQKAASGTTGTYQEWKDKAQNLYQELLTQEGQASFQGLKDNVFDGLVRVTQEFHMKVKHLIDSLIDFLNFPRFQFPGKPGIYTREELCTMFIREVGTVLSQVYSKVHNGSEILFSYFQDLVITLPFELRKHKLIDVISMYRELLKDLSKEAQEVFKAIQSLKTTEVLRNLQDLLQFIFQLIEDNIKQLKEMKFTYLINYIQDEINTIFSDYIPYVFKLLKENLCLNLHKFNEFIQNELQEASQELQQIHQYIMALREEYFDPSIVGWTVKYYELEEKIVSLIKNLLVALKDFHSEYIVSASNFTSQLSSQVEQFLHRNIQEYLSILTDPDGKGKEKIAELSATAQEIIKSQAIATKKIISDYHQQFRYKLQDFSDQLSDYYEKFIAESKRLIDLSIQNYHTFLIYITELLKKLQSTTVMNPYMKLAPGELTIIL

Tests used:
[1] = heat denaturation followed by CD spectrum at 224 nm; format: physicochemical; conditions: 10 μM in 5 mM phosphate buffer (pH 7); CD value at 224 nm
acetylated LDL (AcLDL) = acetylated LDL (AcLDL) (Homo sapiens, UniProt P04114); test: binding of 125I-AcLDL to peptide-immobilized dyna beads; conditions: peptide immobilized on streptavidin-dyna beads M-280; 125I-AcLDL 1.5 μg; 4° C. for 2 hours; DMEM with 10% FBS

CC(C)C[C@H](NC(=O)CNC(=O)[C@@H]1CCCN1C(=O)[C@H](CCCCN)NC(=O)CNC(=O)[C@@H](NC(=O)[C@H](CCCCN)NC(=O)CNC(=O)[C@@H]1C[C@@H](O)CN1C(=O)[C@@H]1CCCN1C(=O)CNC(=O)[C@@H]1C[C@@H](O)CN1C(=O)[C@@H]1CCCN1C(=O)CNC(=O)[C@@H]1C[C@@H](O)CN1C(=O)[C@@H]1CCCN1C(=O)CNC(=O)[C@@H]1C[C@@H](O)CN1C(=O)[C@@H]1CCCN1C(=O)CNC(=O)[C@@H](N)CSCC(=O)NCCC(=O)NCCC(=O)NCCCC[C@H](NC(=O)CCNC(=O)CCNC(=O)CSC[C@H](N)C(=O)NCC(=O)N1CCC[C@H]1C(=O)N1C[C@H](O)C[C@H]1C(=O)NCC(=O)N1CCC[C@H]1C(=O)N1C[C@H](O)C[C@H]1C(=O)NCC(=O)N1CCC[C@H]1C(=O)N1C[C@H](O)C[C@H]1C(=O)NCC(=O)N1CCC[C@H]1C(=O)N1C[C@H](O)C[C@H]1C(=O)NCC(=O)N[C@@H](CCCCN)C(=O)N[C@H](C(=O)NCC(=O)N[C@@H](CCCCN)C(=O)N1CCC[C@H]1C(=O)NCC(=O)N[C@@H](CC(C)C)C(=O)N[C@@H](CC(N)=O)C(=O)NCC(=O)N[C@@H](CCC(N)=O)C(=O)N[C@@H](CCCCN)C(=O)NCC(=O)N[C@@H](CCC(N)=O)C(=O)N[C@@H](CCCCN)C(=O)NCC(=O)N[C@@H](CCC(=O)O)C(=O)N[C@@H](CCCCN)C(=O)NCC(=O)N1CCC[C@H]1C(=O)N1C[C@H](O)C[C@H]1C(=O)NCC(=O)N1CCC[C@H]1C(=O)N1C[C@H](O)C[C@H]1C(=O)NCC(=O)N1CCC[C@H]1C(=O)N1C[C@H](O)C[C@H]1C(=O)NCC(N)=O)[C@@H](C)O)C(=O)N[C@@H](CCCCNC(=O)CCNC(=O)CCNC(=O)CSC[C@H](N)C(=O)NCC(=O)N1CCC[C@H]1C(=O)N1C[C@H](O)C[C@H]1C(=O)NCC(=O)N1CCC[C@H]1C(=O)N1C[C@H](O)C[C@H]1C(=O)NCC(=O)N1CCC[C@H]1C(=O)N1C[C@H](O)C[C@H]1C(=O)NCC(=O)N1CCC[C@H]1C(=O)N1C[C@H](O)C[C@H]1C(=O)NCC(=O)N[C@@H](CCCCN)C(=O)N[C@H](C(=O)NCC(=O)N[C@@H](CCCCN)C(=O)N1CCC[C@H]1C(=O)NCC(=O)N[C@@H](CC(C)C)C(=O)N[C@@H](CC(N)=O)C(=O)NCC(=O)N[C@@H](CCC(N)=O)C(=O)N[C@@H](CCCCN)C(=O)NCC(=O)N[C@@H](CCC(N)=O)C(=O)N[C@@H](CCCCN)C(=O)NCC(=O)N[C@@H](CCC(=O)O)C(=O)N[C@@H](CCCCN)C(=O)NCC(=O)N1CCC[C@H]1C(=O)N1C[C@H](O)C[C@H]1C(=O)NCC(=O)N1CCC[C@H]1C(=O)N1C[C@H](O)C[C@H]1C(=O)NCC(=O)N1CCC[C@H]1C(=O)N1C[C@H](O)C[C@H]1C(=O)NCC(N)=O)[C@@H](C)O)C(=O)NCCCCCC(=O)N[C@@H](CCCCNC(=O)CCCCCNC(=O)CCCC[C@@H]1SC[C@@H]2NC(=O)N[C@@H]21)C(=O)N[C@@H](Cc1ccc(O)cc1)C(N)=O)[C@@H](C)O)C(=O)N[C@@H](CC(N)=O)C(=O)NCC(=O)N[C@@H](CCC(N)=O)C(=O)N[C@@H](CCCCN)C(=O)NCC(=O)N[C@@H](CCC(N)=O)C(=O)N[C@@H](CCCCN)C(=O)NCC(=O)N[C@@H](CCC(=O)O)C(=O)N[C@@H](CCCCN)C(=O)NCC(=O)N1CCC[C@H]1C(=O)N1C[C@H](O)C[C@H]1C(=O)NCC(=O)N1CCC[C@H]1C(=O)N1C[C@H](O)C[C@H]1C(=O)NCC(=O)N1CCC[C@H]1C(=O)N1C[C@H](O)C[C@H]1C(=O)NCC(N)=O [triple-stranded peptide]
midpoint of heat denaturation [1]: about 30 °C | binding activity to acetylated LDL labelled by 125I (AcLDL bound to peptide resin) (acetylated LDL (AcLDL)): specific binding activity
